Values from PubChem BioAssay AID602196 (INSERM, 2012).
In all, the deposit lists about 23,000 reagents; shown is a random part of them. In the full data, 455 (2%) were called active. 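Active includes both protection and sensitisation; some change values fall well beyond the stated -50 to +50 range.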 The numbers tell different reagents against one gene apart. Further read-outs or replicates are left out here. Not given: the amount of reagent.

Purpose: 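Knock-downs that protect lung cancer cells from cisplatin or sensitise them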
System: human A549 lung cancer cells
Reagents: siRNA pair against human genes
Duration: 48 h transfection before cisplatin; time from cisplatin to read-out not stated
Challenge: cisplatin at a dose killing half of control-siRNA cells; exact dose and duration not given
Read-out: 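Cisplatin cell death as a shift from the 50% death seen with control siRNA; siRNAs toxic or growth-blocking alone scored 0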
Scale: two-siRNA summed score (-2 to +2): higher = both siRNAs protect from cisplatin killing; -2 means both sensitise
Hit rule: 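siRNAs harmful alone (LDH or WST-1) get 0; others get +1 for less and -1 for more cisplatin killing; genes are active when the two siRNAs give the same sign, summing to ±2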
Meaning of the calls: active = both siRNAs shift cisplatin killing the same way; inactive = no consistent shift, or siRNA harmful alone

two-siRNA summed score (-2 to +2), by gene and reagent
HNRNPA1P70: #1 -1 inactive
PRUNE2: #1 0 inactive; #2 0 inactive
TMEM45B: #1 1 inactive
CEBPZ: #1 0 inactive
CCT8L2: #1 0 inactive
LOC440692: #1 0 inactive
GRIN3B: #1 0 inactive
LOC402485: #1 0 inactive
LOC122038: #1 0 inactive
OR51B6: #1 0 inactive
SLC2A9: #1 0 inactive
TSN: #1 0 inactive
SH2D3A: #1 -1 inactive
AGPAT1: #1 0 inactive
PPP1R3C: #1 1 inactive
NOXA1: #1 0 inactive
PRSS12: #1 -1 inactive
FUNDC1: #1 -1 inactive
LOC441369: #1 0 inactive
RASL11B: #1 0 inactive
ST7L: #1 0 inactive
LOC440579: #1 1 inactive
PODXL: #1 0 inactive; #2 0 inactive
MAS1: #1 0 inactive
LOC440274: #1 0 inactive
LOC342618: #1 0 inactive
BAIAP3: #1 -1 inactive
GSTA2: #1 1 inactive
IFT74: #1 0 inactive
ONECUT1: #1 0 inactive
FAM181B: #1 0 inactive
LOC124446: #1 0 inactive
PYCARD: #1 0 inactive
IMMP2L: #1 0 inactive

Ordered by “two-siRNA summed score (-2 to +2)” (descending): 7 of the entries above.
gene	reagent no.	two-siRNA summed score (-2 to +2)	call
PPP1R3C	1	1	inactive
TSN	1	0	inactive
AGPAT1	1	0	inactive
NOXA1	1	0	inactive
SH2D3A	1	-1	inactive
PRSS12	1	-1	inactive
FUNDC1	1	-1	inactive

Next results follow:
two-siRNA summed score (-2 to +2), by gene and reagent
TM9SF2: #1 0 inactive
CYB5R2: #1 -1 inactive
ZNF577: #1 0 inactive
SFXN4: #1 0 inactive
LOC441851: #1 0 inactive
TTC27: #1 1 inactive
SLC6A3: #1 0 inactive
TMC2: #1 0 inactive
ZFP2: #1 0 inactive
LAPTM4A: #1 0 inactive
LOC441829: #1 0 inactive
MMP10: #1 -1 inactive
LMBRD2: #1 0 inactive
ANKS3: #1 0 inactive
ME1: #1 0 inactive
KAZALD1: #1 0 inactive
VLDLR: #1 0 inactive
CDCP1: #1 1 inactive
GAS2: #1 -1 inactive
SOCS7: #1 0 inactive
GNL1: #1 0 inactive
